Data taken from the supplement of paper PMC10849652.
This is one part of the list.

The chains behind the UniProt entries cited, without tags or fusion partners. Where a name states a change or a piece, a line headed by the entry shows the natural chain unless it says otherwise.
UniProt Q9UP52: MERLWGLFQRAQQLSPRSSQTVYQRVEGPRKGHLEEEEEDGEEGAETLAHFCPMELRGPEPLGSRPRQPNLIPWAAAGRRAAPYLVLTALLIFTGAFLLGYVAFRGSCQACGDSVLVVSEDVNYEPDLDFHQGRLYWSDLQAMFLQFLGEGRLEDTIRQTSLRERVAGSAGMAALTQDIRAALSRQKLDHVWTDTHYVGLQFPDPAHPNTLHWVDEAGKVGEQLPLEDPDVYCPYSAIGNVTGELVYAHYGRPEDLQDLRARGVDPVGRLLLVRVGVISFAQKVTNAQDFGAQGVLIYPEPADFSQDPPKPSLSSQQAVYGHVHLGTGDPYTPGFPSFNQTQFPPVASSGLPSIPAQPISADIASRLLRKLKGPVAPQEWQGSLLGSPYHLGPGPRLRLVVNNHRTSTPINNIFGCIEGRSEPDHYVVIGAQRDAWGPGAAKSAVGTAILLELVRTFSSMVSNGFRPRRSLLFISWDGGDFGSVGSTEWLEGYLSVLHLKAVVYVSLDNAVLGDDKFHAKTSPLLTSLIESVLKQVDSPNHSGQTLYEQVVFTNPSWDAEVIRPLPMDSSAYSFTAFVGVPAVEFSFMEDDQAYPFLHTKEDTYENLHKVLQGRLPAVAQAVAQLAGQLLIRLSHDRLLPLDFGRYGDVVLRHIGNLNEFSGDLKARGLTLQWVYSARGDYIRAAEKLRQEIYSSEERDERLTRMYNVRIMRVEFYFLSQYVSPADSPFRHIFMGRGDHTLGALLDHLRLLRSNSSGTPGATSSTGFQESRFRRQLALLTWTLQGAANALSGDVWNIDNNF
UniProt Q9BZK7: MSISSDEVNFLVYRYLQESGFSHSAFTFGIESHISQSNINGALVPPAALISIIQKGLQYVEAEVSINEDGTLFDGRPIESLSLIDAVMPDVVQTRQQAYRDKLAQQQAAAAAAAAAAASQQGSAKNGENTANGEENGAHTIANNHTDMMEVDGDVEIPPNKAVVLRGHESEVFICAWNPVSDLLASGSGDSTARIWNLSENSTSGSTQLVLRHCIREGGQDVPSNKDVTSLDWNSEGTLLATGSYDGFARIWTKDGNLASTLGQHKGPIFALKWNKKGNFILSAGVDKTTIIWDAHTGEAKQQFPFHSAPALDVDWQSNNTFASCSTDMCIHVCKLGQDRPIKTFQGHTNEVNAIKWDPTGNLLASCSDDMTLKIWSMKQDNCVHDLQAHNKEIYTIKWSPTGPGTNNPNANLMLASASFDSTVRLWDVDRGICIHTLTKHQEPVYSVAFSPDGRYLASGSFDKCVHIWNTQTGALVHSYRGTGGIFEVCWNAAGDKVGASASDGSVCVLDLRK
UniProt Q66K14, whole entry, looked up: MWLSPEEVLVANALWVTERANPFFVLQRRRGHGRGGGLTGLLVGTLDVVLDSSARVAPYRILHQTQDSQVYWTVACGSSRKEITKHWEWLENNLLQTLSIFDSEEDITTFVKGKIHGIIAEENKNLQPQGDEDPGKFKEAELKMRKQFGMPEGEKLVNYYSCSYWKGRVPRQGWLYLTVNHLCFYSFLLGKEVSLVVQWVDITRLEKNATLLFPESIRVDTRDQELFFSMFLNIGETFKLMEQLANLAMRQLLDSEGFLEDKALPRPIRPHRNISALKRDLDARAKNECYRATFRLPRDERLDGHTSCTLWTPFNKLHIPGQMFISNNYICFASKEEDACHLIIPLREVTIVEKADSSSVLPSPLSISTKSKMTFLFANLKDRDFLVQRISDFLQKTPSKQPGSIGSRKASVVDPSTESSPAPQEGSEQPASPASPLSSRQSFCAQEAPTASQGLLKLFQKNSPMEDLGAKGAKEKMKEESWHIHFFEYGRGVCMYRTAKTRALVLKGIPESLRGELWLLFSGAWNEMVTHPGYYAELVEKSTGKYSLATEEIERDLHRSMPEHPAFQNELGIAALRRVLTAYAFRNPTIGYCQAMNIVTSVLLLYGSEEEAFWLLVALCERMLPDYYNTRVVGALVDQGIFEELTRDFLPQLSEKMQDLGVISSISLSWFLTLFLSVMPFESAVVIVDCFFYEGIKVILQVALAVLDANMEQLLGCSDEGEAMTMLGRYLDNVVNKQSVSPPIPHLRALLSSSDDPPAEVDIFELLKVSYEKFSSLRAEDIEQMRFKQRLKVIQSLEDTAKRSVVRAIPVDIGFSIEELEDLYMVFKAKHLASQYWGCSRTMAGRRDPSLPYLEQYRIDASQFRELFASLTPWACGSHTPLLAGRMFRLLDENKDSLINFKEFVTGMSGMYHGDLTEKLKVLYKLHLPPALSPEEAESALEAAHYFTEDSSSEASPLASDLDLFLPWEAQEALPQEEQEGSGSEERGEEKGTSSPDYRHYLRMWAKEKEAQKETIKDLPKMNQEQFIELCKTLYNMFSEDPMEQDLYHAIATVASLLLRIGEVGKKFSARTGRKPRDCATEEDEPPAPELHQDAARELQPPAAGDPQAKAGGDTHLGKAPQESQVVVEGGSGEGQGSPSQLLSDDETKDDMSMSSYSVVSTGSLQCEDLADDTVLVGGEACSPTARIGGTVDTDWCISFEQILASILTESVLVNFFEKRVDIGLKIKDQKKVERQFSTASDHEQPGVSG
UniProt P36897: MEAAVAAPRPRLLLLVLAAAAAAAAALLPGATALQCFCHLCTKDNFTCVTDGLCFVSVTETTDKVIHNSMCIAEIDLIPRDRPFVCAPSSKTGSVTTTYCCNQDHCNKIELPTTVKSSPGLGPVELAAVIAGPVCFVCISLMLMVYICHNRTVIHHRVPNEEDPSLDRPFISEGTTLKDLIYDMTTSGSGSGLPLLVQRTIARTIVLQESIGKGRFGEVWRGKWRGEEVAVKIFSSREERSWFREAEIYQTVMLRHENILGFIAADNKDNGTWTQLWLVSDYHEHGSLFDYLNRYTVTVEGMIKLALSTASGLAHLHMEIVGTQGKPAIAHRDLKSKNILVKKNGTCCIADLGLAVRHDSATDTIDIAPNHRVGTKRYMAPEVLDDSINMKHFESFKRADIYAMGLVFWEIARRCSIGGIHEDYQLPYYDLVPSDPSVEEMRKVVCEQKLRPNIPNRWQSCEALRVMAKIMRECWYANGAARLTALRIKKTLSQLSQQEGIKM
UniProt O60343: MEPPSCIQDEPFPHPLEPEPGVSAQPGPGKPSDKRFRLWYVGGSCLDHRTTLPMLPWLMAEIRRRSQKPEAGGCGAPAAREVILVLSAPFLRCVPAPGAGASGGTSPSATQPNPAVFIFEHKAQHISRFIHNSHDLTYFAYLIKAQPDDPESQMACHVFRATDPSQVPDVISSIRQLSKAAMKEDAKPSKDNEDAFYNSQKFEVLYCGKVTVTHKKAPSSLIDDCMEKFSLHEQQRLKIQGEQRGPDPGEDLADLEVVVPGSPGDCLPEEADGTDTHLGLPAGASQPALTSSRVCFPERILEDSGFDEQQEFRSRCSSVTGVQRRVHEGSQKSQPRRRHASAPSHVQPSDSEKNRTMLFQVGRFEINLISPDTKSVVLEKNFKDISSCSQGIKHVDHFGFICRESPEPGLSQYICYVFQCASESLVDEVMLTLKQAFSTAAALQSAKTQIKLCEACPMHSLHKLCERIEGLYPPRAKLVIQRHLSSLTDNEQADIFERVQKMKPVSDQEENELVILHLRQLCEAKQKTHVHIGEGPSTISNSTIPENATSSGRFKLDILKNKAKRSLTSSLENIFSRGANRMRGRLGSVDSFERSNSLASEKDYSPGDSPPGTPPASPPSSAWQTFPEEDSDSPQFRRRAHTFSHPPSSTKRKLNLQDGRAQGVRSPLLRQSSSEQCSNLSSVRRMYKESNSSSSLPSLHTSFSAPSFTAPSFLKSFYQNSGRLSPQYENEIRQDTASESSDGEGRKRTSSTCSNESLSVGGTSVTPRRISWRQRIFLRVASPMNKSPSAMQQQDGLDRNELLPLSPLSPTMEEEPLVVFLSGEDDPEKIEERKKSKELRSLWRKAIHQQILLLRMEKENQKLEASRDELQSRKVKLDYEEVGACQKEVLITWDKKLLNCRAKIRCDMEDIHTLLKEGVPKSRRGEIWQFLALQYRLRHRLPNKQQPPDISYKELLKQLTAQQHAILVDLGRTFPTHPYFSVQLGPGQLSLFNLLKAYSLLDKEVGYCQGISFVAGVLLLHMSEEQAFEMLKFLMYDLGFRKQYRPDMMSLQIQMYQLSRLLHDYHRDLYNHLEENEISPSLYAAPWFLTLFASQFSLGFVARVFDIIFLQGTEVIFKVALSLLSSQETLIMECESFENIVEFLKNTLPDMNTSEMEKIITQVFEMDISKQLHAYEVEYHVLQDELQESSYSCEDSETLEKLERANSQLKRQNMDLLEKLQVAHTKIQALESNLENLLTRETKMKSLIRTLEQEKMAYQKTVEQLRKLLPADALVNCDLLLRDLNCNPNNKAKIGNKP
UniProt Q01085: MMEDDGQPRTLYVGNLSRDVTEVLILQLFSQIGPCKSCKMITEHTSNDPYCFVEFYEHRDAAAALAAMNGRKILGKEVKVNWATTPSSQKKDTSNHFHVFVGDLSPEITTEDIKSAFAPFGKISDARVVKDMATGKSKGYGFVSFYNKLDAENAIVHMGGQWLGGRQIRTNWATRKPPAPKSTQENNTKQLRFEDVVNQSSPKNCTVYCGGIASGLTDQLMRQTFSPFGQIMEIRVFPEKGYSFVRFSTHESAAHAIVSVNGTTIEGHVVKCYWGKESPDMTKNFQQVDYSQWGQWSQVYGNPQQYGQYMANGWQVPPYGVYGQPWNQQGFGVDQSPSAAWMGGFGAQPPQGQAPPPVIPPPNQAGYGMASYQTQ
UniProt Q15554: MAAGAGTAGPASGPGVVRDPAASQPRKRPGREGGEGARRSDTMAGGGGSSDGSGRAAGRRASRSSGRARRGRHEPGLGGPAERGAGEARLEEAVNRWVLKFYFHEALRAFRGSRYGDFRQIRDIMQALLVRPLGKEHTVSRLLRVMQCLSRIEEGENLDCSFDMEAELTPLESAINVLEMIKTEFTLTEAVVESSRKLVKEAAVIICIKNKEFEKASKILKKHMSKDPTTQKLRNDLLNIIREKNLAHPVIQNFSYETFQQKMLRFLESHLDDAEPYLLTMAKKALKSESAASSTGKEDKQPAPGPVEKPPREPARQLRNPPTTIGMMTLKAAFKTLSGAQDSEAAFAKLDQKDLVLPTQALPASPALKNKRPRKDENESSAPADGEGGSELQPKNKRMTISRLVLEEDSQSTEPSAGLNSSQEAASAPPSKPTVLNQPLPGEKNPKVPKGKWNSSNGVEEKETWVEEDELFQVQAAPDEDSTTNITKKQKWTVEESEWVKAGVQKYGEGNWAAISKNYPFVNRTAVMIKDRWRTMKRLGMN
UniProt Q96BS2: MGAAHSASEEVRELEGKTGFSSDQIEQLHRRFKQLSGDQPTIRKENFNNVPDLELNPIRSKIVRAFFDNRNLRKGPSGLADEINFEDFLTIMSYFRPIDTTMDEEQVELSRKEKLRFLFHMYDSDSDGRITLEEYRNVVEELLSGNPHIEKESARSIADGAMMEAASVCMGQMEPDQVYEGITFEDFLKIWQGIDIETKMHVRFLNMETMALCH
UniProt O14776: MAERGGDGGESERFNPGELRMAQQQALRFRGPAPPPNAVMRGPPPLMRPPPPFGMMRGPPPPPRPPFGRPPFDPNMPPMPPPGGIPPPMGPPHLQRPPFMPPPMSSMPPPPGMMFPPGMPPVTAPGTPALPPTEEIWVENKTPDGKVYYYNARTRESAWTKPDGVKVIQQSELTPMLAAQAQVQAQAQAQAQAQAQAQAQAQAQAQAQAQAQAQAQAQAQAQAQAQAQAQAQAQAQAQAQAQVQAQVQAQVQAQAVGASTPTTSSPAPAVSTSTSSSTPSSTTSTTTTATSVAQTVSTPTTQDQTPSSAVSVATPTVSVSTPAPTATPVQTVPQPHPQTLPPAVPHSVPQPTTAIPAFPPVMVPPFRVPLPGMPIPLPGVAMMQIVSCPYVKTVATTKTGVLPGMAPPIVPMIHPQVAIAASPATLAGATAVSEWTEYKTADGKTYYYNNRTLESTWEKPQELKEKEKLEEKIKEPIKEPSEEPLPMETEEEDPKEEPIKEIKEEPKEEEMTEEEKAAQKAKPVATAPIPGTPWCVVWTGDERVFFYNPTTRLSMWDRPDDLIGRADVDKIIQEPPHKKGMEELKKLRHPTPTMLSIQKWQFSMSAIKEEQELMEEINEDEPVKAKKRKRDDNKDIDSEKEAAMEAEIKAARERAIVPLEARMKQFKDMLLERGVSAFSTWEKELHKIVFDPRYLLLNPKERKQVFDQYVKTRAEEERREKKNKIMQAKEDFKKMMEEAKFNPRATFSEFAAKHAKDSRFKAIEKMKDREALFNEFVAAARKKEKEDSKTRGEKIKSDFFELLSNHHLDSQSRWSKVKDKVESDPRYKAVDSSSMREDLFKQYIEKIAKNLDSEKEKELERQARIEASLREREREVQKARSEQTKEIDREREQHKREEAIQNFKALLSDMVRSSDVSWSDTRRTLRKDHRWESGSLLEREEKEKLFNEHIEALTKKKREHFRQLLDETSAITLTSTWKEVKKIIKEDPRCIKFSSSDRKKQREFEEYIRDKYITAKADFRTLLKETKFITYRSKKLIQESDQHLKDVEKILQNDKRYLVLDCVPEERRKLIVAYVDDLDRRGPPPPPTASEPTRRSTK

Compound: Cc1cc(SCc2sc(-c3ccc(C(F)(F)F)cc3)nc2C)ccc1OCC(=O)O
Assay: log2 fold change, soluble protein after heating vs DMSO (PISA); higher = thermal stabilisation; K562 cells, 10 uM, 30 min; active = over 0.2 and 3.5 SD of the protein, either way, in both replicates (recomputed)
In short: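 K562 cells at 2×10^6 cells/mL were exposed to 10 μM compound for 30 min, then aliquots were heated for 3 min across 48°C-58°C, pooled, and extracted in PBS containing 0.5% NP-40 at 4°C. The supernatant after 21,000xg for 90 min was taken as soluble protein and measured by TMTpro 16plex LC-MS/MS with channel sums equalised. Thermal stability is reported relative to control samples, with values from duplicates. Fold changes are given on a log2 scale.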

log2 fold change, inactive:
TEX264 (UniProt Q9Y6I9) -0.028, THOP1 (UniProt P52888) -0.008, TGFBRAP1 (UniProt Q8WUH2) 0.087, TIMM9 (UniProt Q9Y5J7) 0.024, TCF3 (UniProt P15923) -0.097, TIMM10 (UniProt P62072) 0.027, TFR2 (UniProt Q9UP52) -0.038, TBL1XR1 (UniProt Q9BZK7) 0.002, TBC1D9B (UniProt Q66K14) 0.072, TKFC (UniProt Q3LXA3) -0.04, TGFBR1 isoform 2 (UniProt P36897) 0.014, TCOF1 isoform 4 (UniProt Q13428) -0.047, TIMM8A (UniProt O60220) -0.042, THUMPD2 (UniProt Q9BTF0) -0.037, TFB2M (UniProt Q9H5Q4) 0.033, TIMM17A (UniProt Q99595) -0.067, TFRC (UniProt P02786) -0.023, THG1L (UniProt Q9NWX6) -0.018, TBCC (UniProt Q15814) 0.007, TES (UniProt Q9UGI8) -0.018, TELO2 (UniProt Q9Y4R8) 0.176, TBCA (UniProt O75347) -0.041, TBC1D4 (UniProt O60343) 0.004, TIAL1 isoform 2 (UniProt Q01085) 0.046, TLE3 isoform 4 (UniProt Q04726) -0.028, TGM2 (UniProt P21980) -0.025, TGFB1 (UniProt P01137) -0.001, TDP2 isoform 2 (UniProt O95551) 0.072, TECR (UniProt Q9NZ01) 0.044, TIMM22 (UniProt Q9Y584) 0.062, THBS4 (UniProt P35443) -0.273, TERF2 (UniProt Q15554) -0.065, TICAM2 isoform 2 (UniProt Q86XR7) 0.055, TIMM13 (UniProt Q9Y5L4) 0.006, TBL1X (UniProt O60907) 0.054, TF (UniProt P02787) -0.258, THOC5 (UniProt Q13769) -0.027, TBC1D15 isoform 3 (UniProt Q8TC07) 0.064, TESC (UniProt Q96BS2) 0.091, TCERG1 (UniProt O14776) 0.179
